The other results are listed elsewhere or left out.
biological target: T1, OsSMF1 (Oryza sativa, UniProt Q6ZLB0 1-436); assay: protein-binding microarray (RPBM); PBS, 2% BSA, 51.3 ng/ul salmon testes DNA, 50 uM zinc acetate, 200 nM TF, 25 C, 1 h; high values mean tight binding; settings: protein: recombinant; tags: N-terminal polyhistidine and DsRed monomer fusion (pET32a); chain copies: 2; label: CyDye5-dUTP incorporated in the synthesized complementary strand; 3' TTTTT single-stranded linker to array surface; dsDNA, one strand shown
T1 sequence: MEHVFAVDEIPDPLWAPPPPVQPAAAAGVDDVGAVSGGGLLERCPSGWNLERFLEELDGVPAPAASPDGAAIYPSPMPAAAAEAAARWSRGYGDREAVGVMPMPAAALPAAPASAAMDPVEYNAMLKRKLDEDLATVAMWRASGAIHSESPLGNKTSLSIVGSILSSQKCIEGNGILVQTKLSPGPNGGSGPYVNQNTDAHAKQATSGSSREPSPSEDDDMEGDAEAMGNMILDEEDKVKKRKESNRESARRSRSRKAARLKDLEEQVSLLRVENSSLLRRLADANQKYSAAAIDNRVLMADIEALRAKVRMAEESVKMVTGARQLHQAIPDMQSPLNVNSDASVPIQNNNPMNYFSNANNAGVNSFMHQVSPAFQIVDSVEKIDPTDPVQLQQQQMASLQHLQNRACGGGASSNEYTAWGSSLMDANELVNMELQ
Procedure, shortened: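 Binding signal is defined as the fluorescence intensity of each feature in arbitrary units, read on an Axon 4000B scanner. Transcription factors with N-terminal polyhistidine and DsRed fusions came from E. coli BL21-CodonPlus and were purified on Ni–NTA. They were incubated at 200 nM for 1 h at 25 °C on a custom Agilent array that had been made double-stranded with Cy5-dUTP, with 50 µM zinc acetate present, and the array was washed.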

| Sequence | binding signal |
| --- | --- |
| TAGTACAACCTCCAAATCCAGGTCAAACCAGGCGATTCGACGGAGTCACCTAGTGCAG | 3410 fluorescence intensity (a.u.) |
| CCGCCTCGTCCCCTCCCCACCACCGCCACCGCCACCGCCACGGAGTCACCTAGTGCAG | 3730 fluorescence intensity (a.u.) |
| GAAATTATATGTTGCTGATCCAGTCACTGCCGCCTGTTACCGGAGTCACCTAGTGCAG | 5000 fluorescence intensity (a.u.) |
| TTCTCAGCCAATCCCCAGCTCACACGTGCCAACTCTTCCACGGAGTCACCTAGTGCAG | 7630 fluorescence intensity (a.u.) |
| CAAACACTCAAATGTGGCGTAAACATACCTATATCAGCCACGGAGTCACCTAGTGCAG | 4060 fluorescence intensity (a.u.) |
| CGATTTACTTCAAATTTTAGAGGATCAGATCCGACGAAATCGGAGTCACCTAGTGCAG | 42900 fluorescence intensity (a.u.) |
| CCCAGCCCGGCGTCCCCTTCTCGGCTTCCTCCTCCACCATCGGAGTCACCTAGTGCAG | 4100 fluorescence intensity (a.u.) |
| ATGGTGGTTGTTTAGCCGAGGGAATTGGTGGTGAGGTTAACGGAGTCACCTAGTGCAG | 32400 fluorescence intensity (a.u.) |
| GGATGGTTTATATTTCTTTGCTTACGTGGATCAACCAGGTCGGAGTCACCTAGTGCAG | 20900 fluorescence intensity (a.u.) |
| CAGCCCGGACAGCGCGAACGACGCCGCGTCATCCGCCGGACGGAGTCACCTAGTGCAG | 10200 fluorescence intensity (a.u.) |
| CTGAACTTATTCCGTGCGCTTACACGTGGCCCATGAGGCACGGAGTCACCTAGTGCAG | 5480 fluorescence intensity (a.u.) |
| CAAAGTCTTTTGGGAAAGCCAAATCTGTCCACCTCACCATCGGAGTCACCTAGTGCAG | 7460 fluorescence intensity (a.u.) |
| GCTGATGAATGATGTTGTGCAATTATAATTTTCTTCTTCTCGGAGTCACCTAGTGCAG | 3950 fluorescence intensity (a.u.) |
| AAGCAAGATTCTGCGTGCTGTGAACTACTATTCAACAAGTCGGAGTCACCTAGTGCAG | 28500 fluorescence intensity (a.u.) |
| ATAAATTATATATAGAAAAGTTTTCGTACAAAATATAATACGGAGTCACCTAGTGCAG | 28900 fluorescence intensity (a.u.) |
| AGGGTGATGTAATAATATAGATTGTAGAACCCTAATATCGCGGAGTCACCTAGTGCAG | 3220 fluorescence intensity (a.u.) |
| GAATCATATTCTATTACTATTACTACTTGGAATATGAGTTCGGAGTCACCTAGTGCAG | 3470 fluorescence intensity (a.u.) |
| GTTTTGGTTGTAGACGTGGTTTGATAATAGTTGGCTAAGGCGGAGTCACCTAGTGCAG | 3780 fluorescence intensity (a.u.) |
| CTTCACCGGTGGCATACCACCGTGGCTGGCTTCTATGCCTCGGAGTCACCTAGTGCAG | 3400 fluorescence intensity (a.u.) |
| ACAATGGGCTGTGACGTGCTAGCCTGGGTCGGCCCAAGTCCGGAGTCACCTAGTGCAG | 5620 fluorescence intensity (a.u.) |
| GTCGGCAAGGAGAAGGATGGATCAGAATAGTCATAGATGGCGGAGTCACCTAGTGCAG | 24300 fluorescence intensity (a.u.) |

Looked up above:
ATAAATTATATATAGAAAAGTTTTCGTACAAAATATAATACGGAGTCACCTAGTGCAG – binding signal: 28900 fluorescence intensity (a.u.)
GAATCATATTCTATTACTATTACTACTTGGAATATGAGTTCGGAGTCACCTAGTGCAG – binding signal: 3470 fluorescence intensity (a.u.)

The results go on:

| Sequence | binding signal |
| --- | --- |
| AGGCGCCACGACGGAACGGGCGCTACAATGTATCACTTTTCGGAGTCACCTAGTGCAG | 4420 fluorescence intensity (a.u.) |
| TGAGACCGGAAATCATCGGATCTACATGTCAGTGACACGGCGGAGTCACCTAGTGCAG | 5460 fluorescence intensity (a.u.) |
| AGGAGGTAGGATAGTTCCCTCCGTAATGGATCGAGGATGTCGGAGTCACCTAGTGCAG | 42000 fluorescence intensity (a.u.) |
| GAGATTATATGTGATCTCTTAATAAGAGGTCCTACTCGAACGGAGTCACCTAGTGCAG | 3310 fluorescence intensity (a.u.) |
| CATATCCGCATCTGCATCCGCATCTGGCCGGATATCTAAACGGAGTCACCTAGTGCAG | 23900 fluorescence intensity (a.u.) |
| ACTACATTGGATGACAACTAGGCCCCACTACTGATTAAGTCGGAGTCACCTAGTGCAG | 3210 fluorescence intensity (a.u.) |
| CCACCACCGTGACGCCGTGTCCACACGCAGCCCGAGCCGCCGGAGTCACCTAGTGCAG | 3230 fluorescence intensity (a.u.) |
| GGTGCGGGTAGCGCGCGCGCGCATCGCCTCGTCGGAGGAGCGGAGTCACCTAGTGCAG | 3570 fluorescence intensity (a.u.) |
| TGATCATTTTCACGGCGGAGGTAAAGTGGTACAGTCACATCGGAGTCACCTAGTGCAG | 3600 fluorescence intensity (a.u.) |
| CGGACGCCGCTGCAGTACCCAATGACGACACCACCACCACCGGAGTCACCTAGTGCAG | 4200 fluorescence intensity (a.u.) |
| TCGGTTGAGAAGACTTGGTCATCTCAACCACCGACGCAGGCGGAGTCACCTAGTGCAG | 3470 fluorescence intensity (a.u.) |
| AGTGAATTCGAATTCACGGTTCGTTCCGTCCTCCTCCCTGCGGAGTCACCTAGTGCAG | 32500 fluorescence intensity (a.u.) |
| AATAGTACGGCGCTGAGTGCACGTTGGCACGCCGACTCAGCGGAGTCACCTAGTGCAG | 3930 fluorescence intensity (a.u.) |
| GTTCGGATCTACATACCACGTATATATAACGTATTGATTGCGGAGTCACCTAGTGCAG | 5060 fluorescence intensity (a.u.) |
| GAGGAAATGCCTGGGAGGAGGAGGAGGGACTCGGGGCGGGCGGAGTCACCTAGTGCAG | 3910 fluorescence intensity (a.u.) |
| CGCCGCCTGCTCCCCGTCGCCGTCGGCGCTGGCGGCGGGGCGGAGTCACCTAGTGCAG | 3190 fluorescence intensity (a.u.) |
| CACGCGCCGGTGCCTTGCGCCGTCACCGTGCCAGCCCAGCCGGAGTCACCTAGTGCAG | 5670 fluorescence intensity (a.u.) |
| ATGGCCAACGCTCCACGCTGGAGCGTGGTCTCACCCTTTCCGGAGTCACCTAGTGCAG | 4110 fluorescence intensity (a.u.) |
| CGAACATAAGTTAGTGACGCATGCCTCAAAATGAAAAGGACGGAGTCACCTAGTGCAG | 41400 fluorescence intensity (a.u.) |
| TAAGGCCTAAACCCAACTCAATCTCTCTAATTCATTTTGCCGGAGTCACCTAGTGCAG | 3310 fluorescence intensity (a.u.) |
| AAGCTTGATATATGAAATTGTACAGGCCATCAAAGTCAAGCGGAGTCACCTAGTGCAG | 3850 fluorescence intensity (a.u.) |

Source: article PMC7819943, “Rice protein-binding microarrays: a tool to detect cis-acting elements near promoter regions in rice”
